Measured values taken from the supplement of paper PMC7125110.
± gives the standard error. Many entries were measured with a wide error.

B1: glmS ribozyme (parent)
chain: AUAAAAGCGCCAGAACUACAGAAAUGUAGUUGACGAGGAGGAGGUUUAUCGAAUUUUCGGCGGAUGCCUCCAAA

Variants of: B1
Test: self-cleavage kobs at 10000 uM GlcN6P; higher = faster cleavage; RNA array
Conditions: with glucosamine-6-phosphate
How it was run: (§1)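 Tiles bearing barcoded ribozyme variants, transcribed in situ by E. coli RNA polymerase on sequenced MiSeq chips, were imaged over ~14 h at 37 °C using a hybridised Cy3 probe. Glucosamine-6-phosphate was supplied at 40 μM to 10 mM in HEPES/KCl/Mg(OAc)2 buffer. kobs came from one- or two-exponential decay fits to normalised per-tile medians, and weighted Michaelis–Menten fits then provided kcat and KM.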

| Variant | self-cleavage kobs at 10000 uM GlcN6P [s⁻¹] |
| --- | --- |
| A15C C16A C50G A53G | 2.41e-05 ± 1.9e-05 |
| U30A C50G | 2.04e-05 ± 1.5e-05 |
| A6G A12G | 1.15e-05 ± 9.7e-06 |
| C8G C50A C61A C68A | 0.00285 ± 0.0024 |
| G43A U56A | 1.6e-05 ± 9.5e-06 |
| A6C A14C U31G A48G G51U C58U C61A | 2.32e-05 ± 2.2e-05 |
| A48U U49G | 1.21e-05 ± 1.1e-05 |
| C10U A12G | 1.81e-05 ± 1e-05 |
| C11A A12G U30C | 3.24e-05 ± 1.8e-05 |
| A14G G38U C50G | 2e-05 ± 1.9e-05 |
| G7U C68G | 0.000435 ± 0.00034 |
| A14G C70A | 0.00715 ± 0.0058 |
| U47G A64U | 2.73e-05 ± 1.4e-05 |
| A14C G59U | 1.75e-05 ± 1.3e-05 |
| U30A G41C | 3.02e-05 ± 1.8e-05 |
| C10G C68G | 0.00155 ± 0.0012 |

| Variant | self-cleavage kobs at 10000 uM GlcN6P [s⁻¹] |
| --- | --- |
| G29U U54G C58U U69G | 2.62e-05 ± 1.8e-05 |
| A14C U31A A64C | 1.78e-05 ± 1.4e-05 |
| C16A U47A C67G | 2.84e-05 ± 2.4e-05 |
| A14G G21U C67U | 0.0443 ± 0.028 |
| C8G C10G A33G C58U C70U C71G | 2.77e-05 ± 2.4e-05 |
| U30C A36C C70A | 2.55e-05 ± 2.4e-05 |
| A6G A64G | 1.58e-05 ± 1.2e-05 |
| C8A C70G | 0.000513 ± 0.00034 |
| U57G G66A | 2.21e-05 ± 1.6e-05 |
| C10U A39U | < 1e-05 |
| A36C C70A | 1.87e-05 ± 1.7e-05 |
| C8U C58U C68A | 2.52e-05 ± 2.5e-05 |
| C50A C68U | 1.25e-05 ± 1.1e-05 |
| A15U C34U C50G | 2.64e-05 ± 2e-05 |
| A12G A53U C58U | 3.56e-05 ± 1.9e-05 |

Variants of: B1
Test: self-cleavage kobs at 2500 uM GlcN6P; higher = faster cleavage; RNA array
Conditions: with glucosamine-6-phosphate
How it was run: as §1

| Variant | self-cleavage kobs at 2500 uM GlcN6P [s⁻¹] |
| --- | --- |
| U45C U69G | 3.47e-05 ± 1.8e-05 |
| G43A U56A | 2.21e-05 ± 1.5e-05 |
| A48U U49G | 2.4e-05 ± 1.6e-05 |
| G37C C71A | 2.36e-05 ± 1.7e-05 |
| A42C | < 1e-05 |
| C34U A52G U57A U65G U69G C70A | 0.00101 ± 0.00062 |
| G40U U46C A53U | 0.000469 ± 0.00036 |
| A33G U65A C70G | 3.13e-05 ± 2.4e-05 |
| U49A C71U | 2.1e-05 ± 2e-05 |
| G29A G37A U47C | 3.17e-05 ± 1.6e-05 |
| G29C U54G G60A | 0.00475 ± 0.0026 |
| U30C U46A | 2.12e-05 ± 1.6e-05 |
| A33G C50G G62U | 3.29e-05 ± 1.9e-05 |
| G37C U55C | 1.9e-05 ± 1.5e-05 |
| G32U A42G U46C | 3.23e-05 ± 2.7e-05 |
| G29C G59A C68G U69A | 3.67e-05 ± 2.3e-05 |
| C16U A52U C68G | 4.55e-05 ± 3.7e-05 |
| A36C G43C A52U | 4.58e-05 ± 3.4e-05 |
| C16A U46G C71A | 5.44e-05 ± 3.3e-05 |

| Variant | self-cleavage kobs at 2500 uM GlcN6P [s⁻¹] |
| --- | --- |
| C16U U31A U45A | 0.0343 ± 0.018 |
| A15U U57A | 2.17e-05 ± 1.2e-05 |
| U31C U57C | 1.11e-05 ± 1.1e-05 |
| U30C C68G C70U | 4.11e-05 ± 2.9e-05 |
| G62A C70A | 3.84e-05 ± 2.3e-05 |
| A48C A64G | 1.83e-05 ± 1.2e-05 |
| G63A C71G | 3.57e-05 ± 2.4e-05 |
| G29U U30G G43C C68G | 0.00395 ± 0.0031 |
| G60A C68G C70A | 3.57e-05 ± 2.3e-05 |
| U31C A42G C70U | 0.000287 ± 0.00019 |
| U47G A64U | 3.2e-05 ± 2.2e-05 |
| C68A C70U | 1.82e-05 ± 1.4e-05 |
| G43U G66U C67U | 2.63e-05 ± 2.5e-05 |
| G37A C70A | 1.39e-05 ± 9e-06 |
| G29A U57A | 3.19e-05 ± 3e-05 |
| C34U G51A U57G U69G | 5.57e-05 ± 3.9e-05 |
| G29U U49G A64G | 5.17e-05 ± 3.8e-05 |
| G60A C67G | 1.62e-05 ± 1.5e-05 |
| A39G G59U | 1.17e-05 ± 1.1e-05 |

Exported with tabs: part of the list above
Variant	self-cleavage kobs at 2500 uM GlcN6P [s⁻¹]
C16U A52U C68G	4.55e-05 ± 3.7e-05
A36C G43C A52U	4.58e-05 ± 3.4e-05
C16A U46G C71A	5.44e-05 ± 3.3e-05
C16U U31A U45A	0.0343 ± 0.018
A15U U57A	2.17e-05 ± 1.2e-05
U31C U57C	1.11e-05 ± 1.1e-05
U30C C68G C70U	4.11e-05 ± 2.9e-05
G62A C70A	3.84e-05 ± 2.3e-05
A48C A64G	1.83e-05 ± 1.2e-05
G63A C71G	3.57e-05 ± 2.4e-05
G29U U30G G43C C68G	0.00395 ± 0.0031
G60A C68G C70A	3.57e-05 ± 2.3e-05
U31C A42G C70U	0.000287 ± 0.00019
U47G A64U	3.2e-05 ± 2.2e-05
C68A C70U	1.82e-05 ± 1.4e-05
G43U G66U C67U	2.63e-05 ± 2.5e-05
G37A C70A	1.39e-05 ± 9e-06
G29A U57A	3.19e-05 ± 3e-05
C34U G51A U57G U69G	5.57e-05 ± 3.9e-05

Individual results from the entries so far.
In self-cleavage kobs at 2500 uM GlcN6P [s⁻¹], G60A C68G C70A is entered as 3.57e-05 ± 2.3e-05
In self-cleavage kobs at 2500 uM GlcN6P [s⁻¹], U31C A42G C70U is entered as 0.000287 ± 0.00019

Next part:

| Variant | self-cleavage kobs at 2500 uM GlcN6P [s⁻¹] |
| --- | --- |
| C34G G35C U46G | 3.86e-05 ± 3.5e-05 |
| U45G U46A | 0.00288 ± 0.0015 |
| A42G C58U | 1.99e-05 ± 1.1e-05 |
| A15G C34G C61G G63A C67U | 5.6e-05 ± 3e-05 |
| U31C A48U | 3.14e-05 ± 1.8e-05 |
| U30A U55G C61U | 8.72e-05 ± 6.3e-05 |
| U31A A64C | 3.13e-05 ± 1.9e-05 |
| U45G A64U | 3.67e-05 ± 2e-05 |
| U57A C61U C70G | 3.59e-05 ± 2e-05 |
| U57G G66A | 2.02e-05 ± 1.6e-05 |
| A36C C70A | 4.87e-05 ± 2.6e-05 |
| C50U U55G C68A | 4.24e-05 ± 2.7e-05 |
| G43U U45C | 1.77e-05 ± 1.2e-05 |
| G66U C68G C71A | 2.05e-05 ± 2e-05 |
| G37U C61G C67G | 3.76e-05 ± 2.7e-05 |
| C50A C68U | 2.44e-05 ± 1.5e-05 |
| C16G C50U C68G | 4.07e-05 ± 2.2e-05 |
| A33U A52U C70U | 3.48e-05 ± 2.1e-05 |
